We go through eleven sequences from article PMC9963953, “Structures of MPND Reveal the Molecular Recognition of Nucleosomes”.

For at least one entry, the source does not settle the construct or the ends of the probe. For some assays here: No signal at the amounts used counts as a negative. Protein sequences can lack the tags named with them. For some assays here: A weaker result is weaker than the reference pair of the same experiment. For some assays here: At least one verdict rests on a figure or table, not on a statement of the authors.

Data set [1] has as its target T1, MPND (fragment used in EMSA/MST not given) (Mus musculus) (UniProt Q3TV65).
T1 sequence (looked up, limits assumed): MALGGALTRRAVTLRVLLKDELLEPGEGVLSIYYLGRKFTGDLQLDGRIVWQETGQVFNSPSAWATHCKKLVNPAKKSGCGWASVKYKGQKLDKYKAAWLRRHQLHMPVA
In words: EMSA, MST. The note with it: EMSA: 20 mM HEPES pH 7.2, 100 mM NaCl, 2 mM DTT, 0.1% NP-40, 20 uM protein, 5 uM DNA, on ice, recombinant protein, protein details: His6 or GST tag, TEV-removed, label: FAM.

Data set [2] has as its target T1, MPND (fragment used in EMSA/MST not given) (Mus musculus). In words: MST. The settings on record: MST: 20 mM HEPES pH 7.2, 100 mM NaCl, 0.1% NP-40, 22 C, recombinant protein, protein details: His6 or GST tag, TEV-removed, label: FAM.
Data set [3] has the same target. In words: EMSA. The note with it: EMSA: 20 mM HEPES pH 7.2, 100 mM NaCl, 2 mM DTT, 0.1% NP-40, 20 uM protein, 5 uM DNA, on ice, recombinant protein, protein details: His6 or GST tag …, label: FAM.
For data set [4] the target is unchanged. In words: competition with a labelled probe. The settings on record: unlabeled dsDNA competes with FAM-dsDNA1; EMSA: 20 mM HEPES pH 7.2, 100 mM NaCl, 2 mM DTT, 0.1% NP-40, 20 uM protein, 5 uM DNA, on ice; recombinant protein; protein details: His6 or GST tag, TEV-removed; label: FAM. In general terms: A gel shift assay detects complexes by their altered migration in electrophoresis.

[5] abbreviates: affinity falls with number of mismatches.
Setting [6] is: affinity falls with number of mismatched bases.

Turning to “TCAGCAACAGAAGAGGATCTC / GAGATCCGAGGAGGTTGCTGA [bubble 6 (6 mismatches)]”, in data set [1] (setting [5]), the binding result was “binds more weakly”.
As to “AGCAACAGAAGAGGATCT (double strand) [6mA dsDNA 18 bp]”, the binding result in data set [1] (6mA did not affect binding, N6-methyladenine, position not readable in the material) is “binds”.
Regarding “TCAGCAACAGAAGAGGATCTC / GAGATCCGAGGAGTGGGCTGA [bubble 9 (9 mismatches)]”, the binding result in data set [1] (setting [5]) is given as “binds more weakly”.
With TCAGCAACAGAAGAGGATCTC [ssDNA 21 nt], the binding result in data set [2] (single-stranded DNA) and in data set [3] (single-stranded DNA) was “no binding” throughout.
“AGCAACAGAAGAGGATCT (double strand) [dsDNA 18 bp]”: the binding result in data set [1] (no obvious effect of length) is given as “binds”.
As for “TCAGCAACAGAAGAGGATCTC (double strand) [dsDNA 21 bp]”, the equilibrium dissociation constant (Kd) in data set [2] was determined as 1500 nM. In addition, the binding result in data set [3] and in data set [4] was “binds” throughout.
Turning to “TCAGCAACAGAAGAGGATCTC / GAGATCCTCTGTTGCTGA [bulge 3]”, in data set [1] (setting [6]), the binding result is “binds more weakly”.
Regarding “TCAGCAACAGAAGAGGATCTC / GAGATCCTCTGAGGTTGCTGA [bubble 3 (3 mismatches)]”, the binding result in data set [1] (setting [5]) is “binds more weakly”.
Regarding “TCAGCAACAGAAGAGGATCTC / GAGATCCGTTGCTGA [bulge 6]”, in data set [1] (setting [6]), the binding result is “binds more weakly”.
For “GATGCAAGCATCAGCAACAGAAGAGGATCTCAGGTGCAGCGC (double strand) [dsDNA 42 bp]”, the binding result in data set [1] (no obvious effect of length) was “binds”.
Take “GCAACAGAAGAGGAT (double strand) [dsDNA 15 bp]”: the binding result in data set [1] (no obvious effect of length) is reported as “binds”.

Usually Kd stands for the concentration at which binding is half-saturated.
